According to PubChem BioAssay AID248 (DTP/NCI, 2004):
The list shows only some results of the screen, not a fair sample: it gathers tests that were run many times, whatever their T/C, doses with no T/C, and many T/C values between a quarter and a half above the control. Other doses and runs of a compound stand elsewhere. T/C is the treated group as % of the vehicle group. Some doses have a count of surviving animals in place of a T/C: the source holds a T/C of zero for them, seemingly a mark for toxic or unscored doses. Some survivor counts are full or nearly so, which does not show that the dose was tolerated: survival well below the control is almost never listed, so the zero probably covers shortened survival too. Counts of survivors are from the toxicity check (mostly the fifth day) where no day follows; animals may have died later. Schedule codes are those of the source, taken here to give the interval after Q, in days (D) or hours (H), and the number of doses after X. Some entries were tested several times; the values are given in rising order. Some schedules carry Z or #; the key to these is not given. Where survival is the endpoint, the PubChem record calls one and a half times the control and up active, and a quarter to a half above the control has no call in these data; cut-offs in other NCI protocols can differ.

Test system: L1210 leukemia ip in BDF1 mice, survival T/C
Test: NCI In Vivo Anticancer Drug Screen. Data for tumor model L1210 Leukemia (intraperitoneal) in B6D2F1 (BDF1) mice
Conditions: T/C endpoint: mean survival time, higher T/C = longer survival
[1] = dose: 200.0 mg/kg/injection, schedule: Q01DX009 (ip), vehicle: saline
[2] = dose: 200.0 mg/kg/injection, schedule: Q04DX003 (ip), vehicle: saline
[3] = dose: 400.0 mg/kg/injection, schedule: Q01DX009 (ip), vehicle: saline
[4] = dose: 400.0 mg/kg/injection, schedule: Q04DX003 (ip), vehicle: saline
[5] = dose: 400.0 mg/kg/injection, schedule: Q01DX001 (ip), vehicle: saline
[6] = dose: 400.0 mg/kg/injection, schedule: Q04DX003 (ip), vehicle: Klucel (hydroxypropylcellulose) (HPC)

OC(OC/C(I)=C(/I)COC(O)C(Cl)(Cl)Cl)C(Cl)(Cl)Cl (centres undefined)
survivor count (dose: 400.0 mg/kg/injection, schedule: Q01DX009 (ip), vehicle: other): 0 of 6

CCOC(=O)CNC(=O)NCc1ccc2c(c1)OCO2
survivor count (dose: 400.0 mg/kg/injection, schedule: Q01DX009 (ip), vehicle: saline with Tween-80): 3 of 6

CCC(=O)OC1(c2ccccc2)CCN(C)C1C (centres undefined)
survivor count [1]: 1 of 6
survivor count [2]: 1 of 4
survivor count [3]: 0 of 6
survivor count [4]: 0 of 4

O=[N+]([O-])c1ccc(C=Nc2cc(Cl)ccc2Cl)s1
survivor count (dose: 400.0 mg/kg/injection, schedule: Q04DX003 (ip), vehicle: saline with Tween-80): 5 of 6

CNCCCN1c2ccccc2CCc2ccccc21
survivor count (dose: 100.0 mg/kg/injection, schedule: Q01DX001 (ip), vehicle: saline): 1 of 6
survivor count (dose: 100.0 mg/kg/injection, schedule: Q01DX009 (ip), vehicle: saline): 0 of 6
survivor count (dose: 100.0 mg/kg/injection, schedule: Q04DX003 (ip), vehicle: saline): 2 of 4
survivor count (dose: 200.0 mg/kg/injection, schedule: Q01DX001 (ip), vehicle: saline): 0 of 6
survivor count [1]: 0 of 6
survivor count [2]: 0 of 4
survivor count [5]: 0 of 6
survivor count [3]: 0 of 6
survivor count [4]: 0 of 4

O=C(NCCCl)NC1CCc2ccccc21 (centres undefined)
survivor count [6]: 5 of 6

COc1ccc(OC)c2c(C)cc(=O)[nH]c12
survivor count [5]: 0 of 6

CC/C(=N/N(C)C)c1ccccc1
survivor count [4]: 0 of 6

Nc1cc(Cl)[nH]c(=O)n1
survivor count (dose: 400.0 mg/kg/injection, schedule: Q01DX009 (ip), vehicle: gum acacia): 6 of 6

CCCCN1C(=O)C=CC1=O
survivor count (dose: 50.0 mg/kg/injection, schedule: Q01DX009 (ip), vehicle: saline with Tween-80): 0 of 3
survivor count (dose: 100.0 mg/kg/injection, schedule: Q01DX009 (ip), vehicle: saline with Tween-80): 0 of 3
survivor count (dose: 200.0 mg/kg/injection, schedule: Q01DX009 (ip), vehicle: saline with Tween-80): 0 of 3

Cc1nc(N)nc(N)c1Oc1ccc(Cl)cc1
survivor count (dose: 240.0 mg/kg/injection, schedule: Q01DX Z (ip), vehicle: saline): 3 of 6

CCc1cccc[n+]1CC(=O)c1ccc(-c2ccccc2)cc1
survivor count (dose: 200.0 mg/kg/injection, schedule: Q04DX003 (ip), vehicle: Klucel (hydroxypropylcellulose) (HPC)): 0 of 6
survivor count [6]: 0 of 6

CN=C(N)NN
T/C (dose: 15.0 mg/kg/injection, schedule: Q01DX Z (ip), vehicle: methylcellulose (MC)): 130 % of control
survivor count (dose: 250.0 mg/kg/injection, schedule: Q01DX Z (oral), vehicle: methylcellulose (MC)): 2 of 6
survivor count (dose: 500.0 mg/kg/injection, schedule: Q01DX Z (oral), vehicle: methylcellulose (MC)): 3 of 6
survivor count (dose: 1000.0 mg/kg/injection, schedule: Q01DX Z (oral), vehicle: methylcellulose (MC)): 3 of 6
survivor count (dose: 2000.0 mg/kg/injection, schedule: Q01DX Z (oral), vehicle: methylcellulose (MC)): 0 of 6

COC(=O)NCc1nc2cc3c[nH][nH]c3cc2n1
survivor count (dose: 150.0 mg/kg/injection, schedule: Q01DX001 (ip), vehicle: carboxymethylcellulose (CMC)): 6 of 6
survivor count (dose: 300.0 mg/kg/injection, schedule: Q01DX001 (ip), vehicle: carboxymethylcellulose (CMC)): 0 of 6

NC(N)=N/N=C/c1cc(Cl)ccc1O
survivor count (dose: 50.0 mg/kg/injection, schedule: Q04DX002 (ip), vehicle: Klucel (hydroxypropylcellulose) (HPC)): 2 of 3 and 3 of 3
survivor count (dose: 100.0 mg/kg/injection, schedule: Q04DX002 (ip), vehicle: Klucel (hydroxypropylcellulose) (HPC)): 2 of 3
survivor count (dose: 200.0 mg/kg/injection, schedule: Q04DX002 (ip), vehicle: Klucel (hydroxypropylcellulose) (HPC)): 0 of 3
survivor count (dose: 400.0 mg/kg/injection, schedule: Q04DX002 (ip), vehicle: Klucel (hydroxypropylcellulose) (HPC)): 0 of 3

CCN1/C(=C/C(C)=C/c2[se]c3ccc(C)cc3[n+]2CC)[Se]c2ccc(C)cc21
survivor count (dose: 8.0 mg/kg/injection, schedule: Q01DX001 (ip), vehicle: other): 0 of 6
survivor count (dose: 9.5 mg/kg/injection, schedule: Q01DX001 (ip), vehicle: other): 0 of 6
survivor count (dose: 19.0 mg/kg/injection, schedule: Q01DX001 (ip), vehicle: other): 0 of 6
survivor count (dose: 38.0 mg/kg/injection, schedule: Q01DX001 (ip), vehicle: other): 0 of 6
survivor count (dose: 75.0 mg/kg/injection, schedule: Q01DX001 (ip), vehicle: other): 0 of 6
survivor count (dose: 150.0 mg/kg/injection, schedule: Q01DX001 (ip), vehicle: other): 0 of 6
survivor count (dose: 300.0 mg/kg/injection, schedule: Q01DX001 (ip), vehicle: other): 0 of 6
